Results from patent publication US5470948A, “Vasopressin and vasotocin derivatives” (Schering Aktiengesellschaft, priority 1990, dated 1995).
At least one peptide structure holds a part that was inferred or is arguable (an end, a ring closure or a residue). Starred links: 1 amine or outer side, 2 acyl side, 3 side chain; linkers in the order of their positions; H or OH if unused. Positions of bridges follow the written chain, without caps; N, C: chain ends. Non-standard residues stand in square brackets, D forms with d. Residues, ends and D or L forms follow the SMILES beside them. X1 = O=C(CC1(S[*:2])CCCCC1)[*:1]; Orn = NCCC[C@H](N)C(=O)O; Mpa = O=C(O)CCS; Sar = CNCC(=O)O

Test system: uterus of pregnant guinea pigs
Assay: oxytocin-inhibiting (antagonistic) activity by continuous tonometry of the uterus of pregnant guinea pigs
Assay type: in vivo, guinea pig

| SMILES | duration and strength of the uterus contraction activity (same dosage patterns as (B): 100.0 μg/ml/animal i.v. + 15 min later 30 or 100 mU/ml oxytocin i.v.) | inhibition of the oxytocin action (100.0 μg/ml/animal i.v. + 15 min later 30 mU/ml of oxytocin i.v., pregnant guinea pigs d 40±1 p.c.) | time after the last administration until recovery of the uterus (clear contractions occur again) (100.0 μg/ml/animal i.v. + 15 min later 100 mU/ml of oxytocin i.v.) | oxytocin-antagonistic action relative to compound (C) (described guinea pig uterus model) |
| --- | --- | --- | --- | --- |
| CCOc1ccc(C[C@H]2NC(=O)CCSSC[C@@H](C(=O)N3CCC[C@H]3C(=O)N[C@@H](CCCN)C(=O)NCC(N)=O)NC(=O)[C@H](CC(N)=O)NC(=O)[C@H]([C@@H](C)O)NC(=O)[C@H]([C@@H](C)CC)NC2=O)cc1 [E, reference compound] ([Mpa][dY](Et)ITNCP[Orn]G-NH2; disulfide 1-6) | only weakened | – | – | – |
| CCOc1ccc(C[C@H]2NC(=O)CC3(CCCCC3)SSC[C@@H](C(=O)N(C)CC(=O)N[C@@H](CCCNC(=N)N)C(=O)NCC(N)=O)NC(=O)[C@H](CC(N)=O)NC(=O)[C@H](CCC(N)=O)NC(=O)[C@H](Cc3ccccc3)NC2=O)cc1 [B, [Mca^1, D-Tyr(Et)^2, Sar^7]AVP] ([dY](Et)FQNC[Sar]RG-NH2; linker N-5 via X1) | – | Complete inhibition | 1 h | comparable |
